Earlier results in patent publication US9211288B2 (priority 2012, dated 2015).

Conditions: plasma; cited from earlier work

For `COc1cc2c(cc1OC)C(=O)C(CC1CCN(Cc3ccccc3)CC1)C2` (stereo not shown) [Donepezil], which half-life in humans is on record?
Its half-life in humans is “approximately 70 hours”.
